Measurements published in the supplement of paper PMC10849652.
The other results are listed elsewhere or left out.

Sequences of proteins named here, by UniProt entry; tags and fusion partners are left off. A change or cut given only in a name is not applied to a line headed by its entry.
UniProt O75845: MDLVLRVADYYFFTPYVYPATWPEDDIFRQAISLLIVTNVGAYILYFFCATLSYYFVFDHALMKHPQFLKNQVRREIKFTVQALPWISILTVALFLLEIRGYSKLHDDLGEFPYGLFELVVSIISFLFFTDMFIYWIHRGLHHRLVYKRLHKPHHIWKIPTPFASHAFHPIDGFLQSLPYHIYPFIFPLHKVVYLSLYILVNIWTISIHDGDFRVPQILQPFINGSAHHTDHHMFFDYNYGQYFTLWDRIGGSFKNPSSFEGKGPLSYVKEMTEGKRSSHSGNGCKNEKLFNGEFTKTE
UniProt Q9NQC3: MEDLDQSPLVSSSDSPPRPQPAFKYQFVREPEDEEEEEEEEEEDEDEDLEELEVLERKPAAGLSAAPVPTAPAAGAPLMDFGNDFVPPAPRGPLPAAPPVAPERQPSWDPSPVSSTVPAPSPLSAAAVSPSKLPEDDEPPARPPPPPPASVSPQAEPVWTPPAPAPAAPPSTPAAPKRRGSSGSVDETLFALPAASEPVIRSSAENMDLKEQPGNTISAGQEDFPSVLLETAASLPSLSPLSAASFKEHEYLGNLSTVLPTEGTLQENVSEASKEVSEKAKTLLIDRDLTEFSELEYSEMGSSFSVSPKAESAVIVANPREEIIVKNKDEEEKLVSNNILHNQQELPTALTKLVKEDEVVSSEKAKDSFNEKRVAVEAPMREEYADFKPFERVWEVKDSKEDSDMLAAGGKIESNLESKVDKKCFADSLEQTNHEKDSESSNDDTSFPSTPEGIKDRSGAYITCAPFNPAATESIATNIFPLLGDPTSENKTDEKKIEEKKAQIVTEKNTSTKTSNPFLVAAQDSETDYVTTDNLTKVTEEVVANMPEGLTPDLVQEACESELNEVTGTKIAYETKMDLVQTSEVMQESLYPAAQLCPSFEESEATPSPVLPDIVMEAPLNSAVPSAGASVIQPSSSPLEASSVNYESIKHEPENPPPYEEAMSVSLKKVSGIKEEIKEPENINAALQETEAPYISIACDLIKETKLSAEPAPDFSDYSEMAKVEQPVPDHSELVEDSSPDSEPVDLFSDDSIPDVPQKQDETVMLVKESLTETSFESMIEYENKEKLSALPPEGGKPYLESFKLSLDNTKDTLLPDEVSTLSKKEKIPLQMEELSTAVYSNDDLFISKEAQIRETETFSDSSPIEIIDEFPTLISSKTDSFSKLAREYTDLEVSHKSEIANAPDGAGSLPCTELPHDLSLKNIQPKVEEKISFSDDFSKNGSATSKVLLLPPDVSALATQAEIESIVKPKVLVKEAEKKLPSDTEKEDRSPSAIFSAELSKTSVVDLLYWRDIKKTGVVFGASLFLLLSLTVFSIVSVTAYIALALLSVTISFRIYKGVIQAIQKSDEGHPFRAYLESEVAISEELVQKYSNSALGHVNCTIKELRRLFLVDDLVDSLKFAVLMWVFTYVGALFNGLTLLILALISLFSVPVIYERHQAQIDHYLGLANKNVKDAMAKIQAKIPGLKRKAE
UniProt P21912: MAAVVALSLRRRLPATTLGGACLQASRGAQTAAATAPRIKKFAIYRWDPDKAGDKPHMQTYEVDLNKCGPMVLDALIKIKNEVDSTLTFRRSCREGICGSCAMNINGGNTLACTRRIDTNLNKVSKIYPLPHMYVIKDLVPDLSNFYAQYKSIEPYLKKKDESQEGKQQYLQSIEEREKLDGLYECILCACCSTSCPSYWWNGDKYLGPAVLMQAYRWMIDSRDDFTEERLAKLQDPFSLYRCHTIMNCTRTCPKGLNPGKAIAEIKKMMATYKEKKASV
UniProt Q9UPN6: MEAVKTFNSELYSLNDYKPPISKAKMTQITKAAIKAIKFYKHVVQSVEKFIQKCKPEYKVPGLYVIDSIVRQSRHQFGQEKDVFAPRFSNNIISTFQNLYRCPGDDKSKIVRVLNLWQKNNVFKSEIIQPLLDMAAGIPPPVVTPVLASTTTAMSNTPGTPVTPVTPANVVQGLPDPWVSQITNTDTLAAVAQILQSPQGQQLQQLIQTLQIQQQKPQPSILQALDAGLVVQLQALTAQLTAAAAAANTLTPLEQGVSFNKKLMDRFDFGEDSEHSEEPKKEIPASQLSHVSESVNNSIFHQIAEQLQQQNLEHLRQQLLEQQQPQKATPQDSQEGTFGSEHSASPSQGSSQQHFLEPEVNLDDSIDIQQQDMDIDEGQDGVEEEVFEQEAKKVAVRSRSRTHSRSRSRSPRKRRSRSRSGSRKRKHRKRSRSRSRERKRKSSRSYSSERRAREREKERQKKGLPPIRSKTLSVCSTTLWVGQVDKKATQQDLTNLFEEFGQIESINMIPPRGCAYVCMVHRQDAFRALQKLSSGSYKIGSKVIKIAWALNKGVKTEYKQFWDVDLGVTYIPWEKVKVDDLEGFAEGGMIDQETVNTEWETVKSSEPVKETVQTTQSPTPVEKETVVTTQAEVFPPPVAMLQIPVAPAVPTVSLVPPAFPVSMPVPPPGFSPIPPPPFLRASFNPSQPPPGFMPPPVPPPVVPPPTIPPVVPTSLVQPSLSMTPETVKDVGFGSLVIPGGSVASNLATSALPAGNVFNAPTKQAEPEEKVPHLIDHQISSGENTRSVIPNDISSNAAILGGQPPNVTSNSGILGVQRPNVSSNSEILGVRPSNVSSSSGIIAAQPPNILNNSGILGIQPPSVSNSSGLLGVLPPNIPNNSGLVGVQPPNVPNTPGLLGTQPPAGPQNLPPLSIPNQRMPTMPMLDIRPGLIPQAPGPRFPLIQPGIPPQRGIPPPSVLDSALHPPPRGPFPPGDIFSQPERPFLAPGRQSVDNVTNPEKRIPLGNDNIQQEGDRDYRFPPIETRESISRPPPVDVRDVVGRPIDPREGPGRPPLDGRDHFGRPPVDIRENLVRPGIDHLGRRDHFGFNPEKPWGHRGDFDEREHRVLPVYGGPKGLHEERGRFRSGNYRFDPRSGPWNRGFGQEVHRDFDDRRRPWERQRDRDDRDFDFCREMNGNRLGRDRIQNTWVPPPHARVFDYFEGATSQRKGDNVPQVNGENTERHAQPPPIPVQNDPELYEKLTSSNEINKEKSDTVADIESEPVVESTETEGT
UniProt Q9Y3A5: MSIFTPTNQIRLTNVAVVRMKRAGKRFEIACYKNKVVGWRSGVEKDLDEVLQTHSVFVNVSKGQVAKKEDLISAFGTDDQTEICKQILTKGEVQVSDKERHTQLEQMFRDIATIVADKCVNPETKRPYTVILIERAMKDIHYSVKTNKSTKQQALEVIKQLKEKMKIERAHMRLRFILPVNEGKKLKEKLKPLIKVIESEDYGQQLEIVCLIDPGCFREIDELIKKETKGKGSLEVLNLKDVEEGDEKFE
UniProt O15127: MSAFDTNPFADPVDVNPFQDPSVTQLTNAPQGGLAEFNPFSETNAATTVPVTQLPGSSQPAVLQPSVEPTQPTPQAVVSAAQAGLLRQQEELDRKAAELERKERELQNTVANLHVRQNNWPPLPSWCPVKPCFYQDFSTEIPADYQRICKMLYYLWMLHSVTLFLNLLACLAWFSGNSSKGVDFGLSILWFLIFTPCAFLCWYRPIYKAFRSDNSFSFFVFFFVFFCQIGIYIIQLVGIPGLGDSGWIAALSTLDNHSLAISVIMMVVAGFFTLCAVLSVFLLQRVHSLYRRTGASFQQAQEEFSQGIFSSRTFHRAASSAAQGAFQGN
UniProt Q9BW04: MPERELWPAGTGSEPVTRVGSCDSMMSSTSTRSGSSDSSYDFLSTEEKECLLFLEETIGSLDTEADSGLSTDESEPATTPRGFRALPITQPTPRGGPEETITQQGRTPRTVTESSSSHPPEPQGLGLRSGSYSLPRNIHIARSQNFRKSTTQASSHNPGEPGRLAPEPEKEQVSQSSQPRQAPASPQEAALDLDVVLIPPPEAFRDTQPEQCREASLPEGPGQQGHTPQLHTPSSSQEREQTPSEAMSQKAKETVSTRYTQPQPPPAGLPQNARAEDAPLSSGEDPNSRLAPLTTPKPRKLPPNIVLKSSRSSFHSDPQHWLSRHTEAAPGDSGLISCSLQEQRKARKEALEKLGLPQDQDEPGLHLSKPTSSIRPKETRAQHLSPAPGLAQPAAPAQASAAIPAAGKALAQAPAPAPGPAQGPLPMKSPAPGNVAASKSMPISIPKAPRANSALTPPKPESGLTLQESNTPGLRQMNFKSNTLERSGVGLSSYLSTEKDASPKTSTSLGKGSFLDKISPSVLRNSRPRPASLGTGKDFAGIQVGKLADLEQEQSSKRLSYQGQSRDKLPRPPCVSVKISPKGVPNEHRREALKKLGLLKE
UniProt Q9Y3B9: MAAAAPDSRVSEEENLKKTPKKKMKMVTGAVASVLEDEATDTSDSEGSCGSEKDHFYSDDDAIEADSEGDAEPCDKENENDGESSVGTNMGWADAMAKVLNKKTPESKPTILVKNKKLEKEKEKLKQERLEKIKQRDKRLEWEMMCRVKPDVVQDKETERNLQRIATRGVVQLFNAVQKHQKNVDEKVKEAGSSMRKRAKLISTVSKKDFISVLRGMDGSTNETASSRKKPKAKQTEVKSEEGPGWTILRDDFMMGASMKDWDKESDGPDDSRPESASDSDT
UniProt Q9Y6B6: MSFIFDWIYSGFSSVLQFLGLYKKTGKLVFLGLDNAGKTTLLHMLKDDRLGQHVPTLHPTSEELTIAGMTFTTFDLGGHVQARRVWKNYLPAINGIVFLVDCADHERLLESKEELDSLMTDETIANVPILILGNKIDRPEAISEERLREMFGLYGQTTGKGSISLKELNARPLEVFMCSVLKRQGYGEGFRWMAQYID
UniProt O95486: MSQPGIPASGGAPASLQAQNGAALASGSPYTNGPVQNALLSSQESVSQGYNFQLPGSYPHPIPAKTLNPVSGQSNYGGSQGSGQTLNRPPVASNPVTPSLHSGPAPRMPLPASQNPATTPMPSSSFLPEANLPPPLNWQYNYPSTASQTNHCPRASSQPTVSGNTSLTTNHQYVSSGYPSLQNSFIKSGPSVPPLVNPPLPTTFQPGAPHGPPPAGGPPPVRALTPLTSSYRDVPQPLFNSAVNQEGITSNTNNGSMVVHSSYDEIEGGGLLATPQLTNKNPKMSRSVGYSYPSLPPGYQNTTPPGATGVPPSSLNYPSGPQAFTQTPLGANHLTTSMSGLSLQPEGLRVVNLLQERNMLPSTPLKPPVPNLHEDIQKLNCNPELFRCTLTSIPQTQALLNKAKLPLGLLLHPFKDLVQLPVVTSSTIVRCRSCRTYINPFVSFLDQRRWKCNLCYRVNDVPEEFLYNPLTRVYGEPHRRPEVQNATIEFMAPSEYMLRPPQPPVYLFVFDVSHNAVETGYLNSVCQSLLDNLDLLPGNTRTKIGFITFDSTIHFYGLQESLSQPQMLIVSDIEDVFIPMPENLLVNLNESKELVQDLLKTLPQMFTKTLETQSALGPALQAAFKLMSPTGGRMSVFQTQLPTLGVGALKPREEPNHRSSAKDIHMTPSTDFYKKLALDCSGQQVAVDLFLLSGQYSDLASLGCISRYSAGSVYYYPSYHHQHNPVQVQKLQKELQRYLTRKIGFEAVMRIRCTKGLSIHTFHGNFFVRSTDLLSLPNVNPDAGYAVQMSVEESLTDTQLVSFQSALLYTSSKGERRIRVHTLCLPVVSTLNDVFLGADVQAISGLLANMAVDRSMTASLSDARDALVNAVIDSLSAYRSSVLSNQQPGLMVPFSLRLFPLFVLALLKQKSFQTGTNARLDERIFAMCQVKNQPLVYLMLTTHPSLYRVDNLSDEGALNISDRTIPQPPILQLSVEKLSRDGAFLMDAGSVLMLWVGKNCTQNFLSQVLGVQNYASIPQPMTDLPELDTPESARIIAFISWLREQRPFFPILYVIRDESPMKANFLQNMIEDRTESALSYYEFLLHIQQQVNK
UniProt Q9UBE0: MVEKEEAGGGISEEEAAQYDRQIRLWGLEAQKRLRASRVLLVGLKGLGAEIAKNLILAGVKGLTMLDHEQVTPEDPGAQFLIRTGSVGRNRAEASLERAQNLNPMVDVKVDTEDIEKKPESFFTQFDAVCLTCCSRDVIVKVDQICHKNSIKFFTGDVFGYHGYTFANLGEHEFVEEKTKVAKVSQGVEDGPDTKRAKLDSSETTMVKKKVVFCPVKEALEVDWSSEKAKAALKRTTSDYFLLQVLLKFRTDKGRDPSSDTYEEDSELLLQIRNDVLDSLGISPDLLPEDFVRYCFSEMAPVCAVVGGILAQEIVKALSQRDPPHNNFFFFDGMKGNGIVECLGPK

Columns and labels:
Test in all cases: log2 fold change, soluble protein after heating vs DMSO (PISA); higher = thermal stabilisation; K562 cells, 10 uM, 30 min; active = over 0.2 and 3.5 SD of the protein, either way, in both replicates (recomputed)
bafetinib = compound: Cc1ccc(NC(=O)c2ccc(CN3CC[C@H](N(C)C)C3)c(C(F)(F)F)c2)cc1Nc1nccc(-c2cncnc2)n1 [bafetinib]
How it was run: (§1)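 Soluble protein was defined as the supernatant after 21,000xg for 90 min. It came from K562 cells at 2×10^6 cells/mL given 10 μM compound for 30 min, heated in aliquots for 3 min across 48°C-58°C, pooled, and extracted in PBS with 0.5% NP-40 at 4°C, and was quantified by TMTpro 16plex LC-MS/MS with equalised channel sums. Thermal stability against control samples, from duplicates, is reported as log2 fold change.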

[1] = compound: Cc1cccc(CC(=O)N2CCc3c2ccc(-c2cn(C)c4ncnc(N)c24)c3F)n1
How it was run: as §1

nilotinib = compound: Cc1cn(-c2cc(NC(=O)c3ccc(C)c(Nc4nccc(-c5cccnc5)n4)c3)cc(C(F)(F)F)c2)cn1 [nilotinib]
How it was run: as §1

[2] = compound: Cc1nc(Nc2n[nH]c3c2CN(C(=O)N[C@H](CN(C)C)c2ccccc2)C3(C)C)c2sccc2n1
How it was run: as §1

dasatinib = compound: Cc1nc(Nc2ncc(C(=O)Nc3c(C)cccc3Cl)s2)cc(N2CCN(CCO)CC2)n1 [dasatinib]
How it was run: as §1

[3] = compound: Cc1ncc(-c2ccnc(Nc3ccc(S(C)(=O)=O)cc3)n2)n1C(C)C
How it was run: as §1

[4] = compound: Cn1cc(-c2ccc3c(c2)CCN3C(=O)Cc2cccc(C(F)(F)F)c2)c2c(N)ncnc21
How it was run: as §1

[5] = compound: Cn1cc(-c2ccc3nnc(C(F)(F)c4ccc5ncccc5c4)n3n2)cn1
How it was run: as §1

tipifarnib = compound: Cn1cncc1[C@@](N)(c1ccc(Cl)cc1)c1ccc2c(c1)c(-c1cccc(Cl)c1)cc(=O)n2C [tipifarnib]
How it was run: as §1

mubritinib = compound: FC(F)(F)c1ccc(/C=C/c2nc(COc3ccc(CCCCn4ccnn4)cc3)co2)cc1 [mubritinib]
How it was run: as §1

[6] = compound: NC(=O)Nc1cc(-c2cccc(F)c2)sc1C(=O)N[C@H]1CCCNC1
How it was run: as §1

[7] = compound: NC(=O)c1cnc(N[C@@H]2CCCC[C@@H]2N)nc1Nc1cccc(-n2nccn2)c1
How it was run: as §1

[8] = compound: NC1(c2ccc(-c3nc4ccn5c(=O)[nH]nc5c4cc3-c3ccccc3)cc2)CCC1
How it was run: as §1

[9] = compound: NCC(=O)Nc1ccc(-n2nc(C(F)(F)F)cc2-c2ccc3c(ccc4ccccc43)c2)cc1
How it was run: as §1

entinostat = compound: Nc1ccccc1NC(=O)c1ccc(CNC(=O)OCc2cccnc2)cc1 [entinostat]
How it was run: as §1

vorinostat = compound: O=C(CCCCCCC(=O)Nc1ccccc1)NO [vorinostat]
How it was run: as §1

citarinostat = compound: O=C(CCCCCCNC(=O)c1cnc(N(c2ccccc2)c2ccccc2Cl)nc1)NO [citarinostat]
How it was run: as §1

silmitasertib = compound: O=C(O)c1ccc2c(c1)nc(Nc1cccc(Cl)c1)c1ccncc12 [silmitasertib]
How it was run: as §1

[10] = compound: O=C1NC(=O)C(c2cnc3ccccn23)=C1c1cn2c3c(cc(F)cc13)CN(C(=O)N1CCCCC1)CC2
How it was run: as §1

[11] = compound: c1cc(OCCN2CCCCC2)cc(-c2n[nH]c3ccc(-c4nnc[nH]4)cc23)c1
How it was run: as §1

Measured: log2 fold change

SAMHD1 (UniProt Q9Y3Z3)
inactive: bafetinib -0.134 | [1] 0.014 | nilotinib -0.08 | [2] -0.097 | dasatinib -0.125 | [3] 0.019 | [4] 0.024 | [5] 0.025 | tipifarnib 0.051 | mubritinib -0.04 | [6] -0.01 | [7] -0.017 | [8] -0.033 | [9] 0.028 | entinostat -0.004 | vorinostat 0.055 | citarinostat 0.003 | silmitasertib -0.018 | [10] -0.029 | [11] 0.011

SACM1L (UniProt Q9NTJ5)
inactive: bafetinib -0.011 | [1] -0.022 | nilotinib 0.044 | [2] -0.002 | dasatinib 0.012 | [3] 0.012 | [4] -0.009 | [5] 0 | tipifarnib -0.024 | mubritinib -0.002 | [6] -0.045 | [7] 0 | [8] -0.102 | [9] -0.083 | entinostat 0.016 | vorinostat 0.006 | citarinostat 0.044 | silmitasertib 0.034 | [10] -0.068 | [11] -0.017

SEC23B (UniProt Q15437)
inactive: bafetinib 0.001 | [1] -0.002 | nilotinib -0.028 | [2] -0.004 | dasatinib -0.06 | [3] -0.013 | [4] 0.044 | [5] -0.021 | tipifarnib -0.031 | mubritinib 0.006 | [6] 0.013 | [7] -0.01 | [8] -0.04 | [9] -0.014 | entinostat 0.009 | vorinostat -0.002 | citarinostat 0.052 | silmitasertib 0 | [10] -0.029 | [11] -0.025

Copied from the entries so far (2 entries):
SACM1L (UniProt Q9NTJ5)
inactive: bafetinib -0.011 | [1] -0.022 | nilotinib 0.044 | [2] -0.002 | dasatinib 0.012 | [3] 0.012 | [4] -0.009 | [5] 0 | tipifarnib -0.024 | mubritinib -0.002 | [6] -0.045 | [7] 0 | [8] -0.102 | [9] -0.083 | entinostat 0.016 | vorinostat 0.006 | citarinostat 0.044 | silmitasertib 0.034 | [10] -0.068 | [11] -0.017

SEC23B (UniProt Q15437)
inactive: bafetinib 0.001 | [1] -0.002 | nilotinib -0.028 | [2] -0.004 | dasatinib -0.06 | [3] -0.013 | [4] 0.044 | [5] -0.021 | tipifarnib -0.031 | mubritinib 0.006 | [6] 0.013 | [7] -0.01 | [8] -0.04 | [9] -0.014 | entinostat 0.009 | vorinostat -0.002 | citarinostat 0.052 | silmitasertib 0 | [10] -0.029 | [11] -0.025

(further entries)

SC5D (UniProt O75845)
inactive: bafetinib -0.011 | [1] -0.032 | nilotinib 0.007 | [2] 0.024 | dasatinib 0.008 | [3] -0.033 | [4] 0.083 | [5] 0.074 | tipifarnib 0.034 | mubritinib 0.062 | [6] -0.028 | [7] -0.213 | [8] -0.098 | [9] 0.032 | entinostat 0.003 | vorinostat 0.009 | citarinostat 0.103 | silmitasertib -0.039 | [10] -0.031 | [11] -0.103

RTN4 (UniProt Q9NQC3)
inactive: bafetinib -0.019 | [1] -0.045 | nilotinib -0.039 | [2] 0.036 | dasatinib 0.043 | [3] -0.044 | [4] -0.002 | [5] -0.038 | tipifarnib -0.029 | mubritinib 0.002 | [6] 0.008 | [7] -0.006 | [8] -0.021 | [9] -0.029 | entinostat -0.016 | vorinostat -0.018 | citarinostat 0.058 | silmitasertib 0.01 | [10] -0.019 | [11] -0.068

SACS (UniProt Q9NZJ4)
inactive: bafetinib 0.034 | [1] -0.059 | nilotinib -0.093 | [2] 0.109 | dasatinib -0.012 | [3] -0.05 | [4] -0.069 | [5] 0.072 | tipifarnib 0.133 | mubritinib 0.093 | [6] 0.152 | [7] -0.027 | [8] 0.025 | [9] -0.18 | entinostat 0.071 | vorinostat 0.177 | citarinostat 0.076 | silmitasertib 0.149 | [10] 0.003 | [11] -0.032

SDHB (UniProt P21912)
inactive: bafetinib -0.073 | [1] -0.094 | nilotinib 0.115 | [2] -0.027 | dasatinib 0.041 | [3] -0.001 | [4] 0.009 | [5] 0 | tipifarnib 0.015 | mubritinib 0.03 | [6] -0.006 | [7] 0.008 | [8] -0.008 | [9] 0.043 | entinostat 0.003 | vorinostat -0.055 | citarinostat 0.012 | silmitasertib -0.049 | [10] -0.011 | [11] 0.022

SCAF8 isoform 2 (UniProt Q9UPN6)
inactive: bafetinib -0.024 | [1] 0.019 | nilotinib -0.032 | [2] -0.208 | dasatinib -0.212 | [3] 0.069 | [4] 0.064 | [5] 0.008 | tipifarnib -0.027 | mubritinib 0.023 | [6] -0.062 | [7] -0.028 | [8] -0.086 | [9] -0.044 | entinostat 0.053 | vorinostat 0.166 | citarinostat 0.058 | silmitasertib -0.003 | [10] -0.098 | [11] -0.093

SBDS (UniProt Q9Y3A5)
inactive: bafetinib 0.031 | [1] 0.057 | nilotinib -0.102 | [2] 0.006 | dasatinib -0.156 | [3] 0.031 | [4] 0.06 | [5] 0.029 | tipifarnib -0.151 | mubritinib 0.161 | [6] -0.075 | [7] -0.077 | [8] -0.155 | [9] -0.088 | entinostat 0.042 | vorinostat 0.068 | citarinostat 0.037 | silmitasertib -0.015 | [10] -0.134 | [11] -0.007

SCAMP2 (UniProt O15127)
inactive: bafetinib -0.113 | [1] -0.125 | nilotinib 0.084 | [2] -0.107 | dasatinib -0.027 | [3] 0.058 | [4] 0.11 | [5] 0.062 | tipifarnib -0.061 | mubritinib 0.046 | [6] -0.007 | [7] 0.168 | [8] 0.001 | [9] 0.029 | entinostat -0.001 | vorinostat -0.027 | citarinostat 0.189 | silmitasertib -0.002 | [10] 0.109 | [11] -0.065

SARG (UniProt Q9BW04)
inactive: bafetinib -0.041 | [1] 0.034 | nilotinib 0.043 | [2] 0.045 | dasatinib 0.016 | [3] -0.051 | [4] 0.013 | [5] 0.034 | tipifarnib 0.02 | mubritinib 0.001 | [6] 0.007 | [7] 0.024 | [8] -0.04 | [9] -0.066 | entinostat -0.012 | vorinostat 0.07 | citarinostat 0.034 | silmitasertib -0.014 | [10] -0.01 | [11] 0.039

RRP15 (UniProt Q9Y3B9)
inactive: bafetinib 0.001 | [1] -0.074 | nilotinib 0.012 | [2] -0.039 | dasatinib 0.051 | [3] -0.055 | [4] 0.011 | [5] -0.031 | tipifarnib 0.061 | mubritinib -0.009 | [6] 0.097 | [7] 0.019 | [8] 0.072 | [9] 0.126 | entinostat -0.042 | vorinostat -0.061 | citarinostat 0.052 | silmitasertib 0.022 | [10] 0.02 | [11] -0.022

SAR1B (UniProt Q9Y6B6)
inactive: bafetinib 0.062 | [1] 0.003 | nilotinib 0.041 | [2] 0.036 | dasatinib -0.097 | [3] 0.065 | [4] 0.036 | [5] 0.026 | tipifarnib -0.102 | mubritinib 0.09 | [6] -0.012 | [7] -0.032 | [8] -0.108 | [9] -0.041 | entinostat 0.011 | vorinostat 0.002 | citarinostat 0.037 | silmitasertib 0.005 | [10] -0.046 | [11] -0.033

SAMM50 (UniProt Q9Y512)
inactive: bafetinib -0.09 | [1] 0.018 | nilotinib -0.008 | [2] 0.017 | dasatinib 0.042 | [3] 0.002 | [4] 0.014 | [5] 0.012 | tipifarnib 0.044 | mubritinib 0.062 | [6] -0.019 | [7] -0.009 | [8] -0.05 | [9] -0.012 | entinostat 0 | vorinostat -0.03 | citarinostat 0.023 | silmitasertib 0.023 | [10] -0.002 | [11] -0.038

SEC24A (UniProt O95486)
inactive: bafetinib -0.018 | [1] 0.041 | nilotinib -0.126 | [2] 0.021 | dasatinib -0.121 | [3] -0.012 | [4] 0.008 | [5] 0.016 | tipifarnib -0.005 | mubritinib 0.017 | [6] -0.015 | [7] 0 | [8] -0.108 | [9] -0.016 | entinostat 0.016 | vorinostat 0.078 | citarinostat 0 | silmitasertib 0.02 | [10] -0.092 | [11] -0.013

SAE1 (UniProt Q9UBE0)
inactive: bafetinib -0.021 | [1] 0.015 | nilotinib 0.041 | [2] -0.019 | dasatinib -0.011 | [3] 0.004 | [4] -0.008 | [5] 0.019 | tipifarnib -0.06 | mubritinib 0.127 | [6] -0.018 | [7] -0.094 | [8] -0.041 | [9] -0.031 | entinostat 0.019 | vorinostat 0 | citarinostat 0.041 | silmitasertib 0.038 | [10] -0.065 | [11] -0.001
